From PubChem BioAssay AID248 (DTP/NCI, 2004)
The list is a part of this screen's results and no random one: it covers a few groups of compounds. Other doses and runs of a compound may be missing. T/C: endpoint of the treated group in % of that of the vehicle group. For survival time, this PubChem deposit counts one and a half times the control or more as active, and values a quarter to a half above the control carry no call in these data; other NCI protocols may use other cut-offs. Some T/C values are marked as having no survivor count here; that says nothing about deaths at the dose. Schedules are NCI's codes, taken here to give the interval after Q, in days (D) or hours (H), and the number of doses after X. Some entries hold several experiments; the values are given in rising order. Some schedules carry Z or #; the key to these is not given.

System: L1210 leukemia ip in BDF1 mice, survival T/C
Assay: NCI In Vivo Anticancer Drug Screen. Data for tumor model L1210 Leukemia (intraperitoneal) in B6D2F1 (BDF1) mice
Settings: T/C endpoint: mean survival time, higher T/C = longer survival
[1] = dose: 100.0 mg/kg/injection, schedule: Q01DX001 (ip), vehicle: Klucel (hydroxypropylcellulose) (HPC)
[2] = dose: 200.0 mg/kg/injection, schedule: Q01DX001 (ip), vehicle: Klucel (hydroxypropylcellulose) (HPC)
[3] = dose: 300.0 mg/kg/injection, schedule: Q01DX001 (ip), vehicle: saline

**Q.** How did the T/C (dose: 10.0 mg/kg/injection, schedule: Q01DX Z (ip), vehicle: saline) turn out when `NP(=O)(N(CCCl)CCCl)N1CCCCC1` (centres undefined) was run?
**A.** 95 % of control [survivor count not shown]

**Q.** And the T/C (dose: 30.0 mg/kg/injection, schedule: Q01DX Z (ip), vehicle: saline)?
**A.** 94 % of control [survivor count not shown]

**Q.** And the T/C (dose: 100.0 mg/kg/injection, schedule: Q01DX Z (ip), vehicle: saline)?
**A.** 101 % of control [survivor count not shown]

**Q.** What about the T/C (dose: 250.0 mg/kg/injection, schedule: Q01DX Z (ip), vehicle: saline) of the same molecule?
**A.** 101 % of control [survivor count not shown]

**Q.** What about the T/C (dose: 300.0 mg/kg/injection, schedule: Q01DX Z (ip), vehicle: saline) of the same molecule?
**A.** 96 % of control [survivor count not shown]

**Q.** What about the T/C (dose: 500.0 mg/kg/injection, schedule: Q01DX Z (ip), vehicle: saline) of the same molecule?
**A.** 90 % of control [survivor count not shown]

**Q.** What does the source list for `COc1ccc([N+](=O)[O-])cc1CN(CCBr)CCBr`?
**A.** T/C [1]: 107 % of control [survivor count not shown]; T/C [2]: 100 % of control [survivor count not shown]

**Q.** How did the T/C (dose: 75.0 mg/kg/injection, schedule: Q01DX001 (ip), vehicle: saline) turn out when `CCNC(=O)Cc1ccc(N(CCCl)CCCl)cc1` was run?
**A.** 100 % of control [survivor count not shown]

**Q.** And the T/C (dose: 150.0 mg/kg/injection, schedule: Q01DX001 (ip), vehicle: saline)?
**A.** 94 % of control [survivor count not shown]

**Q.** What about the T/C [3] of the same molecule?
**A.** 109 % of control [survivor count not shown]

**Q.** Which T/C (dose: 9.37 mg/kg/injection, schedule: Q01DX009 (ip), vehicle: saline) does the source give for `O=P(Cl)(Cl)CCCBr` here?
**A.** 95 % of control [survivor count not shown]

**Q.** And the T/C (dose: 18.75 mg/kg/injection, schedule: Q01DX009 (ip), vehicle: saline)?
**A.** 101 % of control [survivor count not shown]

**Q.** What about the T/C (dose: 18.75 mg/kg/injection, schedule: Q04DX003 (ip), vehicle: acetone) of the same molecule?
**A.** 90 % of control [survivor count not shown]

**Q.** What about the T/C (dose: 37.5 mg/kg/injection, schedule: Q01DX009 (ip), vehicle: saline) of the same molecule?
**A.** 90 % of control [survivor count not shown]

**Q.** And the T/C (dose: 37.5 mg/kg/injection, schedule: Q04DX003 (ip), vehicle: acetone)?
**A.** 91 % of control [survivor count not shown]

**Q.** And the T/C (dose: 75.0 mg/kg/injection, schedule: Q01DX001 (ip), vehicle: acetone)?
**A.** 94 % of control [survivor count not shown]

**Q.** What about the T/C (dose: 75.0 mg/kg/injection, schedule: Q04DX003 (ip), vehicle: acetone) of the same molecule?
**A.** 88 % of control [survivor count not shown]

**Q.** With `Cc1ccc(S(=O)(=O)N(CCCl)CCCl)cc1` as the molecule, how does the T/C [1] read?
**A.** 100 % of control [survivor count not shown]

**Q.** And the T/C [2]?
**A.** 95 % of control [survivor count not shown]

**Q.** And the T/C (dose: 400.0 mg/kg/injection, schedule: Q01DX001 (ip), vehicle: Klucel (hydroxypropylcellulose) (HPC))?
**A.** 101 % of control [survivor count not shown]

**Q.** `O=c1cc(CN(CCCl)CCCl)[nH]c(=O)[nH]1` was tested. Which T/C (dose: 100.0 mg/kg/injection, schedule: Q04DX003 (ip), vehicle: saline) did it give?
**A.** 95 % of control [survivor count not shown]

**Q.** What about the T/C (dose: 200.0 mg/kg/injection, schedule: Q04DX003 (ip), vehicle: saline) of the same molecule?
**A.** 95 % of control [survivor count not shown]

**Q.** What about the T/C (dose: 400.0 mg/kg/injection, schedule: Q04DX003 (ip), vehicle: saline) of the same molecule?
**A.** 98 % of control [survivor count not shown]

**Q.** How did the T/C (dose: 4.0 mg/kg/injection, schedule: Q01DX Z (ip), vehicle: methylcellulose (MC)) turn out when `CCOc1ccccc1N(CCCl)CCCl` was run?
**A.** 102 % of control [survivor count not shown]

**Q.** And the T/C (dose: 6.0 mg/kg/injection, schedule: Q01DX Z (ip), vehicle: methylcellulose (MC))?
**A.** 111 % of control [survivor count not shown]

**Q.** And the T/C (dose: 9.0 mg/kg/injection, schedule: Q01DX Z (ip), vehicle: methylcellulose (MC))?
**A.** 111 % of control [survivor count not shown]

**Q.** `CCN(CC)P(=O)(Cl)OC` (centres undefined) was tested. Which T/C (dose: 12.5 mg/kg/injection, schedule: Q01DX009 (ip), vehicle: DMSO) did it give?
**A.** 92 % of control [survivor count not shown]

**Q.** What about the T/C (dose: 50.0 mg/kg/injection, schedule: Q01DX009 (ip), vehicle: DMSO) of the same molecule?
**A.** 87 [survivor count not shown] and 99 % of control [survivor count not shown]

**Q.** `Cc1[nH]c(=O)[nH]c(=O)c1CN(CCCl)CCCl` was tested. Which T/C (dose: 0.75 mg/kg/injection, schedule: Q04DX002 (ip), vehicle: Klucel (hydroxypropylcellulose) (HPC)) did it give?
**A.** 134 % of control [survivor count not shown]

**Q.** What about the T/C (dose: 1.5 mg/kg/injection, schedule: Q04DX002 (ip), vehicle: Klucel (hydroxypropylcellulose) (HPC)) of the same molecule?
**A.** 138 % of control [survivor count not shown]

**Q.** What about the T/C (dose: 3.1 mg/kg/injection, schedule: Q04DX002 (ip), vehicle: Klucel (hydroxypropylcellulose) (HPC)) of the same molecule?
**A.** 115 % of control [survivor count not shown]

**Q.** What does the source list for `CCCCP(=O)(Cl)N(CCCl)CCCl` (centres undefined)?
**A.** T/C (dose: 50.0 mg/kg/injection, schedule: Q01DX001 (ip), vehicle: saline): 100 % of control [survivor count not shown]; T/C (dose: 89.0 mg/kg/injection, schedule: Q01DX001 (ip), vehicle: saline): 90 [survivor count not shown] and 114 % of control [survivor count not shown]; T/C (dose: 100.0 mg/kg/injection, schedule: Q01DX001 (ip), vehicle: saline): 111 % of control [survivor count not shown]; T/C (dose: 133.0 mg/kg/injection, schedule: Q01DX001 (ip), vehicle: saline): 95 [survivor count not shown] and 111 % of control [survivor count not shown]; T/C (dose: 200.0 mg/kg/injection, schedule: Q01DX001 (ip), vehicle: saline): 105 [survivor count not shown], 122 [survivor count not shown], 134 % of control [survivor count not shown]; T/C [3]: 118 [survivor count not shown] and 131 % of control [survivor count not shown]; T/C (dose: 400.0 mg/kg/injection, schedule: Q01DX001 (ip), vehicle: saline): 125 % of control [survivor count not shown]

**Q.** For `CCCc1[nH]c(=O)[nH]c(=O)c1CN(CCCl)CCCl`, which T/C (dose: 25.0 mg/kg/injection, schedule: Q04DX002 (ip), vehicle: Klucel (hydroxypropylcellulose) (HPC)) is on record?
**A.** 93 % of control [survivor count not shown]

**Q.** And the T/C (dose: 50.0 mg/kg/injection, schedule: Q04DX002 (ip), vehicle: Klucel (hydroxypropylcellulose) (HPC))?
**A.** 100 % of control [survivor count not shown]

**Q.** What about the T/C (dose: 100.0 mg/kg/injection, schedule: Q04DX002 (ip), vehicle: Klucel (hydroxypropylcellulose) (HPC)) of the same molecule?
**A.** 111 % of control [survivor count not shown]

**Q.** How did the T/C (dose: 50.0 mg/kg/injection, schedule: Q01DX001 (ip), vehicle: carboxymethylcellulose (CMC)) turn out when `C[N+](CCCl)(CCCl)Cc1ccc([N+](=O)[O-])cc1` was run?
**A.** 110 % of control [survivor count not shown]

**Q.** And the T/C (dose: 100.0 mg/kg/injection, schedule: Q01DX001 (ip), vehicle: carboxymethylcellulose (CMC))?
**A.** 104 % of control [survivor count not shown]
